{"source": "PubChem BioAssay AID1159594 (NIAID, 2016)", "screen": "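Which core toll-like receptor signalling genes are needed for TNF promoter activation by Pam2CSK4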", "cell system": "human THP-1 B5 reporter cells, PMA-differentiated into macrophage-like cells", "knock-down reagent": "single siRNA against human genes", "duration": "48 to 72 hours after siRNA transfection; ligand exposure 4 hours", "treatment": "Pam2CSK4 (TLR2/6 agonist) stimulation for 4 hours before lysis; dose not given", "read-out": "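TNF promoter reporter signal as firefly to renilla luciferase ratio, scaled per plate by median and MAD, given as robust z-score against negative controls, averaged across replicates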", "reading the numbers": "TNF reporter z-score: higher = stronger TNF promoter reporter activity", "rule for the call": "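Active when the mean z-score across replicates is at or beyond ±1.5 in either direction, matching a depositor grade of 50 or higher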", "meaning of the calls": "active = z-score beyond ±1.5 (either direction); inactive = z-score within ±1.5", "note": "The whole screen tested 756 reagents; below is a random part of them. Of all reagents, 130 (17%) got an active call. 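Active calls cover both falls and rises of reporter activity; each row reflects one siRNA, not a gene-level verdict.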 Entries without a mark were called inactive. Reagents against one gene are numbered here. The record does not give: the amount of reagent."}
{"gene":"IRAK1 (GeneID 3654)","reagent":1,"TNF reporter z-score, replicate mean":"-1.7 (active)"}
{"gene":"IRAK1 (GeneID 3654)","reagent":2,"TNF reporter z-score, replicate mean":"-2.35 (active)"}
{"gene":"IRAK1 (GeneID 3654)","reagent":3,"TNF reporter z-score, replicate mean":"-3.02 (active)"}
{"gene":"IRAK1 (GeneID 3654)","reagent":4,"TNF reporter z-score, replicate mean":-0.458}
{"gene":"IRAK1 (GeneID 3654)","reagent":5,"TNF reporter z-score, replicate mean":"-3.72 (active)"}
{"gene":"IRAK1 (GeneID 3654)","reagent":6,"TNF reporter z-score, replicate mean":"-4.03 (active)"}
{"gene":"FOS (GeneID 2353)","reagent":1,"TNF reporter z-score, replicate mean":-0.0564}
{"gene":"FOS (GeneID 2353)","reagent":2,"TNF reporter z-score, replicate mean":0.151}
{"gene":"FOS (GeneID 2353)","reagent":3,"TNF reporter z-score, replicate mean":"-2.58 (active)"}
{"gene":"FOS (GeneID 2353)","reagent":4,"TNF reporter z-score, replicate mean":-0.675}
{"gene":"FOS (GeneID 2353)","reagent":5,"TNF reporter z-score, replicate mean":0.497}
{"gene":"FOS (GeneID 2353)","reagent":6,"TNF reporter z-score, replicate mean":-0.988}

Sorted by “TNF reporter z-score, replicate mean” (descending): some entries from above.
{"gene":"FOS (GeneID 2353)","reagent":5,"TNF reporter z-score, replicate mean":0.497}
{"gene":"FOS (GeneID 2353)","reagent":6,"TNF reporter z-score, replicate mean":-0.988}

Additional records follow:
{"gene":"TNFAIP3 (GeneID 7128)","reagent":1,"TNF reporter z-score, replicate mean":-0.549}
{"gene":"TNFAIP3 (GeneID 7128)","reagent":2,"TNF reporter z-score, replicate mean":-0.166}
{"gene":"TNFAIP3 (GeneID 7128)","reagent":3,"TNF reporter z-score, replicate mean":-1.15}
{"gene":"TNFAIP3 (GeneID 7128)","reagent":4,"TNF reporter z-score, replicate mean":-1.07}
{"gene":"TNFAIP3 (GeneID 7128)","reagent":5,"TNF reporter z-score, replicate mean":0.259}
{"gene":"TNFAIP3 (GeneID 7128)","reagent":6,"TNF reporter z-score, replicate mean":"-1.73 (active)"}
{"gene":"IKBKE (GeneID 9641)","reagent":1,"TNF reporter z-score, replicate mean":-1.03}
{"gene":"IKBKE (GeneID 9641)","reagent":2,"TNF reporter z-score, replicate mean":-0.128}
{"gene":"IKBKE (GeneID 9641)","reagent":3,"TNF reporter z-score, replicate mean":-0.985}
{"gene":"IKBKE (GeneID 9641)","reagent":4,"TNF reporter z-score, replicate mean":0.999}
{"gene":"IKBKE (GeneID 9641)","reagent":5,"TNF reporter z-score, replicate mean":-0.0605}
{"gene":"IKBKE (GeneID 9641)","reagent":6,"TNF reporter z-score, replicate mean":-0.119}
{"gene":"IRAK2 (GeneID 3656)","reagent":1,"TNF reporter z-score, replicate mean":-0.26}
{"gene":"IRAK2 (GeneID 3656)","reagent":2,"TNF reporter z-score, replicate mean":0.0042}
{"gene":"IRAK2 (GeneID 3656)","reagent":3,"TNF reporter z-score, replicate mean":0.541}
{"gene":"IRAK2 (GeneID 3656)","reagent":4,"TNF reporter z-score, replicate mean":0.0853}
{"gene":"IRAK2 (GeneID 3656)","reagent":5,"TNF reporter z-score, replicate mean":"-2 (active)"}
{"gene":"IRAK2 (GeneID 3656)","reagent":6,"TNF reporter z-score, replicate mean":-0.854}
{"gene":"PTPN6 (GeneID 5777)","reagent":1,"TNF reporter z-score, replicate mean":-0.0124}
{"gene":"PTPN6 (GeneID 5777)","reagent":2,"TNF reporter z-score, replicate mean":0.31}
{"gene":"PTPN6 (GeneID 5777)","reagent":3,"TNF reporter z-score, replicate mean":-0.371}
{"gene":"PTPN6 (GeneID 5777)","reagent":4,"TNF reporter z-score, replicate mean":"-2.13 (active)"}
{"gene":"PTPN6 (GeneID 5777)","reagent":5,"TNF reporter z-score, replicate mean":-1.22}
{"gene":"PTPN6 (GeneID 5777)","reagent":6,"TNF reporter z-score, replicate mean":-1.16}
